Experimental data reported in paper PMC9410882, “Identification of a novel deFADding activity in human, yeast and bacterial 5′ to 3′ exoribonucleases” (Nucleic Acids Research, 2022).
For some of these results: Weaker means in comparison with the reference protein, sequence or condition of that experiment. For some of these results: Protein sequences can lack the tags named with them. For some of these results: The exact form of at least one protein or probe is not confirmed. For some of these results: At least one result comes from cells or an extract, where the contact may be indirect. For some of these results: At least one verdict rests on a figure or table, not on a statement of the authors. For some of these results: The direction of at least one scale is not stated here.

Sequences of proteins named here, by UniProt entry; tags and fusion partners are left off. A change or cut given only in a name is not applied to a line headed by its entry.
UniProt P22147: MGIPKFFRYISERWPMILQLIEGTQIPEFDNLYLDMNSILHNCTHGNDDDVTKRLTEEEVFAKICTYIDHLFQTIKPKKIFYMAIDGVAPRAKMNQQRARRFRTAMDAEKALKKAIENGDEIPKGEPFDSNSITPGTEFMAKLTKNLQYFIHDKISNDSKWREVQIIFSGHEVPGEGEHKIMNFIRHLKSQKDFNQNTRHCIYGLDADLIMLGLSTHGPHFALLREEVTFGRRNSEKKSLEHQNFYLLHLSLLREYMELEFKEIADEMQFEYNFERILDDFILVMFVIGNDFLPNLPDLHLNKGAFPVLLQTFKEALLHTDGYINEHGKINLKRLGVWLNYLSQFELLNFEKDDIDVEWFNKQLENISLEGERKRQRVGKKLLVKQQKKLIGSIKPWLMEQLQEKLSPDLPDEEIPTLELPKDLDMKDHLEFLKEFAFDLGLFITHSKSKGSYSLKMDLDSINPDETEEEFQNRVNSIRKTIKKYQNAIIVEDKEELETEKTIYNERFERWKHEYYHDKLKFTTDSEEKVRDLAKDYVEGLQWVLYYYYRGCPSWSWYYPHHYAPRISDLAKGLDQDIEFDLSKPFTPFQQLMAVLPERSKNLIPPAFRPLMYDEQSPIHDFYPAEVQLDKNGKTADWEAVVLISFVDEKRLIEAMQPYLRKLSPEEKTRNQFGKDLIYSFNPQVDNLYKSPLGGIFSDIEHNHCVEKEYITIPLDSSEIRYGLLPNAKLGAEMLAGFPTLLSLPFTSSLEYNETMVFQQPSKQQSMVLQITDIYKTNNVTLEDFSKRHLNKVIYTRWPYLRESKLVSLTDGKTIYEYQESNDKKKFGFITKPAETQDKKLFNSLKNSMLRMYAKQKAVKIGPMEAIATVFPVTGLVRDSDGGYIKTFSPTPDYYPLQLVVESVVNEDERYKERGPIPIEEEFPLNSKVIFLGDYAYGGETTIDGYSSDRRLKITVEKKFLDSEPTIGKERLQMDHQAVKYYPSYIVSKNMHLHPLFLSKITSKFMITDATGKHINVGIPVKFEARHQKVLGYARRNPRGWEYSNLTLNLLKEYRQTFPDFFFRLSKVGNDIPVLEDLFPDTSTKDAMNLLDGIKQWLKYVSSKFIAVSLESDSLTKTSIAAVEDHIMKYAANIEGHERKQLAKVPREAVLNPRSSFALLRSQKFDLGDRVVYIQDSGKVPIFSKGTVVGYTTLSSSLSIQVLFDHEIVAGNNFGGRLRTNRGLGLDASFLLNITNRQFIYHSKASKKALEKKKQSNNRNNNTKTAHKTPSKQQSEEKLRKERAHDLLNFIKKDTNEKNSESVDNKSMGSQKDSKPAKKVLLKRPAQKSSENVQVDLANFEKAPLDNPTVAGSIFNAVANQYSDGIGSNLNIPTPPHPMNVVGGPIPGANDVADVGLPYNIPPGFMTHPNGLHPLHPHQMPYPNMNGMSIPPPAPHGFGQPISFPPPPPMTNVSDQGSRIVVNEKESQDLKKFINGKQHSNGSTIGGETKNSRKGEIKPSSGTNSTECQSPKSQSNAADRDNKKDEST

Experiments:
[1] = molecular target: T1, Rai1 (Saccharomyces cerevisiae) (UniProt P53063); test: pull-down; settings: FcRAP: 1x lysis buffer, 4 C, 90 min, protein in an extract, label: 3'-biotin, letters put together from the description
T1 sequence (looked up, limits assumed): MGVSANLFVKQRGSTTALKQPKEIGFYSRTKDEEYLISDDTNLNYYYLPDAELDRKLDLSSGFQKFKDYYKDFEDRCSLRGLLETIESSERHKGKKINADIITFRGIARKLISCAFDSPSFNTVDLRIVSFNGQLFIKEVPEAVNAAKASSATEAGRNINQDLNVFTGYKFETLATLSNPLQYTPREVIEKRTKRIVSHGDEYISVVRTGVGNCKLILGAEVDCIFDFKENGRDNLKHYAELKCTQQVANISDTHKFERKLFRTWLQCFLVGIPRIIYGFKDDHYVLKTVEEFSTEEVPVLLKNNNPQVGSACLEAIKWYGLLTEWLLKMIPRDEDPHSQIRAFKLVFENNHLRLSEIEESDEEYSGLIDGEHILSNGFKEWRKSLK

[2] = molecular target: Xrn1 (Saccharomyces cerevisiae) (UniProt P22147); test: pull-down; settings: WT yeast lysate, MS identification, FcRAP: 1x lysis buffer, 4 C, 90 min, protein in an extract, label: 3'-biotin, letters put together from the description
[3] = molecular target: T2, Rat1 (Saccharomyces cerevisiae) (UniProt Q02792); test: pull-down; settings: FcRAP: 1x lysis buffer, 4 C, 90 min, protein in an extract, label: 3'-biotin, letters put together from the description
T2 sequence (looked up, limits assumed): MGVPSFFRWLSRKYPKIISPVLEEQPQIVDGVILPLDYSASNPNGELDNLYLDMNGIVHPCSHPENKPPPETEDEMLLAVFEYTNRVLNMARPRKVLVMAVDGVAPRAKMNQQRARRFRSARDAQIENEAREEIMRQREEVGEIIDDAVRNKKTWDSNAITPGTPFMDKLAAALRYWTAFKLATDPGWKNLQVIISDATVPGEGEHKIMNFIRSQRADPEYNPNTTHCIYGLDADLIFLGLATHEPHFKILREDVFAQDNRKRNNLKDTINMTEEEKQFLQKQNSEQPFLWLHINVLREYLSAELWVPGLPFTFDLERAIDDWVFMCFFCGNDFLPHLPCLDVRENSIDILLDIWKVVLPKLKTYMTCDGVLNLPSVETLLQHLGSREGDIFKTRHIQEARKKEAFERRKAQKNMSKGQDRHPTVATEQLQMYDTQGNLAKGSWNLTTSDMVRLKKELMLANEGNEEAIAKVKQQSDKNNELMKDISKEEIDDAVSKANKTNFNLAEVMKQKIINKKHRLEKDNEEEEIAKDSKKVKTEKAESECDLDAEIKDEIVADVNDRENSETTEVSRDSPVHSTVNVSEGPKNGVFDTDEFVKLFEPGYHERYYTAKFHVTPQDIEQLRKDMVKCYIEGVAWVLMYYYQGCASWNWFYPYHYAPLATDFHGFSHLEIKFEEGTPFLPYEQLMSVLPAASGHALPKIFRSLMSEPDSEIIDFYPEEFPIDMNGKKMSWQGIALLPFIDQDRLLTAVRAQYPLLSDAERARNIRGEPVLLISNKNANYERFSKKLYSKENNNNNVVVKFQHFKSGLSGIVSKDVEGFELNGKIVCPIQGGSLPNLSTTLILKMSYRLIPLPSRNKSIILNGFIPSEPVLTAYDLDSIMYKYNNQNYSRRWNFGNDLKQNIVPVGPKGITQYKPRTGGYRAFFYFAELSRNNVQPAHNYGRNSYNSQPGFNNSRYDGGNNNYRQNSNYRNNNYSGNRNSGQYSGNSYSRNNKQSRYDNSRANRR

[4] = molecular target: T3, Kl Xrn1 (Kluyveromyces lactis) (UniProt Q6CJ09); test: EMSA; settings: nonspecific association, more readily competed by total yeast RNA; 5' triphosphate (Methods EMSA section prints pA-); EMSA: 10 mM Tris-HCl pH 7.5, 150 mM KCl, 1.5 mM MgCl2, 0.5 mM DTT, on ice 30 min, 5 pmol RNA with 2.5-7.5 pmol Xrn1, 6% gel in 0.5x TBE; recombinant protein; protein details: C-terminal 6xHis; label: 32P uniform; letters put together from the description
T3 sequence (looked up, limits assumed): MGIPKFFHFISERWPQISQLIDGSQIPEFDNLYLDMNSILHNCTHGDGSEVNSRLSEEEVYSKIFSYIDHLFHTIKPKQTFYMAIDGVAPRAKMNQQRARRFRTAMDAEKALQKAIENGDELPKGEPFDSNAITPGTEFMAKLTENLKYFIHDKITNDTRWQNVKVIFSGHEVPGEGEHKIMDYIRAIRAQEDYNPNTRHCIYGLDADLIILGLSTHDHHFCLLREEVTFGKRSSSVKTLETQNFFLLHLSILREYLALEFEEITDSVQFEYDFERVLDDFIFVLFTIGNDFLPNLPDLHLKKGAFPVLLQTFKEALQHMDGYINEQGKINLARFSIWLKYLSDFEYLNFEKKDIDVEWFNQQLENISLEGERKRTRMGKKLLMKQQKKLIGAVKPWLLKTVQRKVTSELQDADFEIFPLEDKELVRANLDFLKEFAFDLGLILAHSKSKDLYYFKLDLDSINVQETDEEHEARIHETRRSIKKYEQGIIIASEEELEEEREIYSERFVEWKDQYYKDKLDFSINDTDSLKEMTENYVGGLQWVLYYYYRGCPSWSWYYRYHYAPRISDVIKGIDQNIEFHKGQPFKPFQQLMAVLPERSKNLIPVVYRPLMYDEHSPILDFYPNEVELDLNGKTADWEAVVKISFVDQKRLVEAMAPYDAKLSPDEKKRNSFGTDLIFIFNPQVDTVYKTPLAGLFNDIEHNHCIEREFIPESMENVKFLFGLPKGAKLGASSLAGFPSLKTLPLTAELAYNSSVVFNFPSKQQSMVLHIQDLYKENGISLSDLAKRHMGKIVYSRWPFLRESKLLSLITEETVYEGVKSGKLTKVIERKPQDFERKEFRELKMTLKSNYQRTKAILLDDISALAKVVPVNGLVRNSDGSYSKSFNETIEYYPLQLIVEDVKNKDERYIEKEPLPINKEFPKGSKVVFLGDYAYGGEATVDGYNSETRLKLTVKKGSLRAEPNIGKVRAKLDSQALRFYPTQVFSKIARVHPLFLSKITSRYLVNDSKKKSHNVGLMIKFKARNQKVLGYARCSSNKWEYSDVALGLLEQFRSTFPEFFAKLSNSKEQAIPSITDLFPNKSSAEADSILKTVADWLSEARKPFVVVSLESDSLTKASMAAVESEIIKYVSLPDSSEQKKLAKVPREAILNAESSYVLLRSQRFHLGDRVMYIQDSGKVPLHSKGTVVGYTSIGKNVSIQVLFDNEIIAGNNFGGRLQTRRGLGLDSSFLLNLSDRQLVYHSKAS

[5] = WT lysate, selective for FAD over m7G bait, 5' m7GpppA cap

## AGUUGGUGGUUGUUGUGUGUUUGUGGUUGGUUUGUUUGGC [FAD-capped RNA, 3'-biotin]
[1]; WT and xrn1 deletion lysates, MS identification, 5' FAD cap
  binding result: binds
[2]; 5' FAD cap
  binding signal (spectral counts): 676
[3]; WT, xrn1 deletion and rai1 deletion lysates, MS identification, 5' FAD cap
  binding result: binds

## AGUUGGUGGUUGUUGUGUGUUUGUGGUUGGUUUGUUUGGC [m7G-capped RNA, 3'-biotin]
[1]; [5]
  binding result: binds more weakly
[2]; 5' m7GpppA cap
  binding signal (spectral counts): 74
[3]; [5]
  binding result: binds more weakly

## AGUUGGUGGUUGUUGUGUGUUUGUGGUUGGUUUGUUUGGC [triphosphate RNA (pppA-)]
[4]
  binding result: binds more weakly
